Experimental data: PubChem BioAssay AID328 (DTP/NCI, 2004)
The list shows only some results of the screen, not a fair sample: its compounds were picked by chemical class. Not every dose and run of a compound is shown. T/C is the treated group as % of the vehicle group. Where survival is the endpoint, this PubChem deposit counts one and a half times the control or more as active, and values a quarter to a half above the control carry no call in these data; other NCI protocols may use other cut-offs. Schedules are NCI's codes, read here as Q, the interval in days (D) or hours (H), X, the number of doses. Some T/C values are marked as having no survivor count here; that says nothing about deaths at the dose. Some entries hold several experiments; their values stand side by side, smallest first.

Test system: BDF1 mice, P388 leukemia ip, median survival T/C
Assay: NCI In Vivo Anticancer Drug Screen. Data for tumor model P388 Leukemia (intraperitoneal) in B6D2F1 (BDF1) mice
Conditions: T/C endpoint: median survival time, higher T/C = longer survival
Description: The antitumor activity of compounds was measured in mice bearing transplantable tumors. Survival or tumor size were measured and the results are expressed as the measurement made in the treated group (T) divided by the measurement made in the vehicle treated control group (C). The tumor model used in this assay is P388 Leukemia (intraperitoneal) in B6D2F1 (BDF1) mice

## C[C@@H](O)[C@H]1/C=C/C=C\C(=O)O[C@@H]2C[C@H]3O[C@@H]4[C@@H]5OC5(C)CCC4(COC(=O)[C@H]4O[C@]4(C)[C@@H](O)CO1)[C@]2(C)[C@]31CO1 (stereo not given in full)
dose: 1.17 mg/kg/injection, schedule: Q04DX003 (ip), vehicle: other
  T/C: 136 % of control [survivor count not shown]
dose: 1.94 mg/kg/injection, schedule: Q04DX003 (ip), vehicle: other
  T/C: 118 % of control [survivor count not shown]
dose: 1.94 mg/kg/injection, schedule: Q04DX003 (sc), vehicle: other
  T/C: 127 % of control [survivor count not shown]
dose: 2.59 mg/kg/injection, schedule: Q04DX003 (ip), vehicle: saline + alcohol
  T/C: 184 % of control [survivor count not shown]
dose: 3.24 mg/kg/injection, schedule: Q04DX003 (ip), vehicle: other
  T/C: 136 [survivor count not shown] and 177 % of control [survivor count not shown]
dose: 3.24 mg/kg/injection, schedule: Q04DX003 (sc), vehicle: other
  T/C: 137 % of control [survivor count not shown]
dose: 4.32 mg/kg/injection, schedule: Q04DX003 (ip), vehicle: saline + alcohol
  T/C: 203 % of control [survivor count not shown]
dose: 5.4 mg/kg/injection, schedule: Q04DX003 (ip), vehicle: other
  T/C: 133 [survivor count not shown] and 189 % of control [survivor count not shown]
dose: 5.4 mg/kg/injection, schedule: Q04DX003 (sc), vehicle: other
  T/C: 154 % of control [survivor count not shown]
dose: 9.0 mg/kg/injection, schedule: Q04DX003 (ip), vehicle: other
  T/C: 136 [survivor count not shown] and 171 % of control [survivor count not shown]
dose: 12.0 mg/kg/injection, schedule: Q04DX003 (ip), vehicle: saline + alcohol
  T/C: 194 % of control [survivor count not shown]

## CC(=O)OC[C@]12C[C@H](OC(=O)CC(C)C)C(C)=C[C@H]1OC1[C@H](O)[C@@H](OC(C)=O)[C@@]2(C)[C@@]12CO2
dose: 1.08 mg/kg/injection, schedule: Q04DX003 (ip), vehicle: saline + alcohol
  T/C: 153 [survivor count not shown], 169 [survivor count not shown], 183 % of control [survivor count not shown]
dose: 1.25 mg/kg/injection, schedule: Q04DX002 (ip), vehicle: saline + alcohol
  T/C: 131 % of control [survivor count not shown]
dose: 1.3 mg/kg/injection, schedule: Q04DX003 (ip), vehicle: other
  T/C: 117 % of control [survivor count not shown]
dose: 1.3 mg/kg/injection, schedule: Q04DX003 (ip), vehicle: saline + alcohol
  T/C: 170 % of control [survivor count not shown]
dose: 1.8 mg/kg/injection, schedule: Q04DX003 (ip), vehicle: saline + alcohol
  T/C: 152 [survivor count not shown], 165 [survivor count not shown], 183 % of control [survivor count not shown]
dose: 2.16 mg/kg/injection, schedule: Q04DX003 (ip), vehicle: saline + alcohol
  T/C: 188 % of control [survivor count not shown]
dose: 2.5 mg/kg/injection, schedule: Q04DX002 (ip), vehicle: saline + alcohol
  T/C: 135 % of control [survivor count not shown]
dose: 3.0 mg/kg/injection, schedule: Q04DX003 (ip), vehicle: saline + alcohol
  T/C: 178 [survivor count not shown] and 198 % of control [survivor count not shown]
dose: 5.0 mg/kg/injection, schedule: Q04DX002 (ip), vehicle: saline + alcohol
  T/C: 153 % of control [survivor count not shown]
dose: 5.0 mg/kg/injection, schedule: Q04DX003 (ip), vehicle: saline + alcohol
  T/C: 208 % of control [survivor count not shown]
dose: 6.0 mg/kg/injection, schedule: Q04DX003 (ip), vehicle: saline + alcohol
  T/C: 88 % of control [survivor count not shown]
dose: 389.0 micrograms/kg/injection, schedule: Q04DX003 (ip), vehicle: saline + alcohol
  T/C: 136 % of control [survivor count not shown]
dose: 540.0 micrograms/kg/injection, schedule: Q01DX009 (ip), vehicle: saline + alcohol
  T/C: 185 % of control [survivor count not shown]
dose: 648.0 micrograms/kg/injection, schedule: Q04DX003 (ip), vehicle: saline + alcohol
  T/C: 133 % of control [survivor count not shown]
dose: 648.0 micrograms/kg/injection, schedule: Q04DX003 (sc), vehicle: saline + alcohol
  T/C: 150 % of control [survivor count not shown]
dose: 900.0 micrograms/kg/injection, schedule: Q01DX009 (ip), vehicle: saline + alcohol
  T/C: 234 % of control [survivor count not shown]
dose: 1080.0 micrograms/kg/injection, schedule: Q04DX003 (ip), vehicle: saline + alcohol
  T/C: 139 % of control [survivor count not shown]
dose: 1080.0 micrograms/kg/injection, schedule: Q04DX003 (sc), vehicle: saline + alcohol
  T/C: 167 % of control [survivor count not shown]
dose: 1500.0 micrograms/kg/injection, schedule: Q01DX009 (ip), vehicle: saline + alcohol
  T/C: 254 % of control [survivor count not shown]
dose: 1800.0 micrograms/kg/injection, schedule: Q04DX003 (ip), vehicle: saline + alcohol
  T/C: 161 % of control [survivor count not shown]
dose: 1800.0 micrograms/kg/injection, schedule: Q04DX003 (sc), vehicle: saline + alcohol
  T/C: 180 % of control [survivor count not shown]
dose: 3000.0 micrograms/kg/injection, schedule: Q04DX003 (ip), vehicle: saline + alcohol
  T/C: 163 % of control [survivor count not shown]

## CC(=O)OC1C(=O)OCC23CCC4(C)OC4C2OC2CC(OC(=O)/C=C/C=C/C(=O)OCCC1C)C3(C)C21CO1 (stereo not given)
dose: 1.25 mg/kg/injection, schedule: Q01DX009 (ip), vehicle: saline + alcohol
  T/C: 145 % of control [survivor count not shown]
dose: 2.5 mg/kg/injection, schedule: Q01DX009 (ip), vehicle: saline + alcohol
  T/C: 154 % of control [survivor count not shown]
dose: 5.0 mg/kg/injection, schedule: Q01DX009 (ip), vehicle: saline + alcohol
  T/C: 172 % of control [survivor count not shown]
dose: 10.0 mg/kg/injection, schedule: Q01DX009 (ip), vehicle: saline + alcohol
  T/C: 127 % of control [survivor count not shown]

## CC1=C[C@H]2O[C@@H]3C[C@H]4OC(=O)/C=C\C=C\[C@H]([C@@H](C)O)OC[C@H](O)[C@@]5(C)O[C@@H]5C(=O)OC[C@@]2(C[C@H]1O)[C@]4(C)C31CO1 (stereo not given in full)
dose: 0.63 mg/kg/injection, schedule: Q01DX009 (ip), vehicle: Klucel (hydroxypropylcellulose) (HPC)
  T/C: 139 % of control [survivor count not shown]
dose: 1.25 mg/kg/injection, schedule: Q01DX009 (ip), vehicle: Klucel (hydroxypropylcellulose) (HPC)
  T/C: 150 % of control [survivor count not shown]
dose: 2.5 mg/kg/injection, schedule: Q01DX009 (ip), vehicle: Klucel (hydroxypropylcellulose) (HPC)
  T/C: 161 % of control [survivor count not shown]
